{"source": "PubChem BioAssay AID504793, Drosophila RNAi Screening Center | 2011", "purpose": "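Whole-genome screen for parts of the DNA damage checkpoint at G2/M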 (primary screen)", "system": "Drosophila S2R+ cells", "reagents": "long dsRNA against Drosophila genes, about 0.25 µg dsRNA per well", "duration": "4 days of dsRNA, then 4 hours of drug before read-out", "challenge": "doxorubicin 0.5 µM for 4 hours to cause double-strand breaks, in cells also given a low, harmless dose of dsRNA against nbs to sensitise the assay", "read-out": "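Mitotic index as the number of phospho-histone H3-positive cells in each well following doxorubicin, given as raw counts without normalisation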", "scale": "mitotic cells: higher = more cells in mitosis, weaker G2 arrest", "rule for the call": "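Genes are called active only when high mitotic counts were reproduced with independent dsRNAs and mitosis was checked for delay without damage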", "meaning of the calls": "active = confirmed in follow-up tests; inactive = not confirmed", "note": "The deposit covers about 23,000 reagents; shown is an unselected part of those that have a named target and a result. In the full data, 62 (0.27%) got an active call. 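Calls come from follow-up tests whose scores are not deposited, so confirmed genes may have low counts here; counts are not normalised per plate.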 The raw values are shown without normalisation. Names joined by + are all predicted targets of the reagent."}
{"predicted target": "gdl-ORF39 + gdl", "amplicon": "DRSC11350", "mitotic cells, replicate 1": 7, "activity call": "inactive"}
{"predicted target": "P5cr", "amplicon": "DRSC16782", "mitotic cells, replicate 1": 18, "activity call": "inactive"}
{"predicted target": "CG13614", "amplicon": "DRSC14617", "mitotic cells, replicate 1": 11, "activity call": "inactive"}
{"predicted target": "Cpr62Ba", "amplicon": "DRSC08403", "mitotic cells, replicate 1": 8, "activity call": "inactive"}
{"predicted target": "CG5961", "amplicon": "DRSC15927", "mitotic cells, replicate 1": 8, "activity call": "inactive"}
{"predicted target": "CG5961", "amplicon": "DRSC27152", "mitotic cells, replicate 1": 7, "activity call": "inactive"}
{"predicted target": "Brca2", "amplicon": "DRSC04219", "mitotic cells, replicate 1": 4, "activity call": "inactive"}
{"predicted target": "Brca2", "amplicon": "DRSC04220", "mitotic cells, replicate 1": 8, "activity call": "inactive"}
{"predicted target": "tea", "amplicon": "DRSC06110", "mitotic cells, replicate 1": 11, "activity call": "inactive"}
{"predicted target": "tea", "amplicon": "DRSC06236", "mitotic cells, replicate 1": 4, "activity call": "inactive"}
{"predicted target": "PolQ", "amplicon": "DRSC17006", "mitotic cells, replicate 1": 5, "activity call": "inactive"}
{"predicted target": "LanA", "amplicon": "DRSC11207", "mitotic cells, replicate 1": 4, "activity call": "inactive"}
{"predicted target": "tctn + B9d2", "amplicon": "DRSC03160", "mitotic cells, replicate 1": 4, "activity call": "inactive"}
{"predicted target": "Mkp + CG34140", "amplicon": "DRSC08585", "mitotic cells, replicate 1": 2, "activity call": "inactive"}
{"predicted target": "Oseg4", "amplicon": "DRSC08548", "mitotic cells, replicate 1": 6, "activity call": "inactive"}
{"predicted target": "c(2)M", "amplicon": "DRSC01922", "mitotic cells, replicate 1": 5, "activity call": "inactive"}
{"predicted target": "Ptth", "amplicon": "DRSC00356", "mitotic cells, replicate 1": 1, "activity call": "inactive"}
{"predicted target": "Hsc70-4", "amplicon": "DRSC16711", "mitotic cells, replicate 1": 3, "activity call": "inactive"}
{"predicted target": "Hsc70-4", "amplicon": "DRSC29729", "mitotic cells, replicate 1": 7, "activity call": "inactive"}
{"predicted target": "Fbxo42", "amplicon": "DRSC04529", "mitotic cells, replicate 1": 3, "activity call": "inactive"}
{"predicted target": "Fbxo42", "amplicon": "DRSC29911", "mitotic cells, replicate 1": 16, "activity call": "inactive"}

Next part; the last 3 above are carried over.
{"predicted target": "Hsc70-4", "amplicon": "DRSC29729", "mitotic cells, replicate 1": 7, "activity call": "inactive"}
{"predicted target": "Fbxo42", "amplicon": "DRSC04529", "mitotic cells, replicate 1": 3, "activity call": "inactive"}
{"predicted target": "Fbxo42", "amplicon": "DRSC29911", "mitotic cells, replicate 1": 16, "activity call": "inactive"}
{"predicted target": "spir", "amplicon": "DRSC03619", "mitotic cells, replicate 1": 6, "activity call": "inactive"}
{"predicted target": "spir", "amplicon": "DRSC24744", "mitotic cells, replicate 1": 7, "activity call": "inactive"}
{"predicted target": "Ccn", "amplicon": "DRSC09504", "mitotic cells, replicate 1": 7, "activity call": "inactive"}
{"predicted target": "Ccn", "amplicon": "DRSC09506", "mitotic cells, replicate 1": 12, "activity call": "inactive"}
{"predicted target": "Ccn", "amplicon": "DRSC10062", "mitotic cells, replicate 1": 4, "activity call": "inactive"}
{"predicted target": "Ccn", "amplicon": "DRSC10063", "mitotic cells, replicate 1": 10, "activity call": "inactive"}
{"predicted target": "CG6983", "amplicon": "DRSC10757", "mitotic cells, replicate 1": 6, "activity call": "inactive"}
{"predicted target": "Taf9", "amplicon": "DRSC20326", "mitotic cells, replicate 1": 11, "activity call": "inactive"}
{"predicted target": "Taf9", "amplicon": "DRSC25903", "mitotic cells, replicate 1": 8, "activity call": "inactive"}
{"predicted target": "CG10147", "amplicon": "DRSC09706", "mitotic cells, replicate 1": 3, "activity call": "inactive"}
{"predicted target": "CG10147", "amplicon": "DRSC29564", "mitotic cells, replicate 1": 8, "activity call": "inactive"}
{"predicted target": "sbm", "amplicon": "DRSC20185", "mitotic cells, replicate 1": 15, "activity call": "inactive"}
{"predicted target": "CG31780 + CG18477", "amplicon": "DRSC26122", "mitotic cells, replicate 1": 10, "activity call": "inactive"}
